Test results published in paper doi:10.1101/2021.11.30.470617.
Where two headings read alike, the source gives them in different places. Results are given in words; binding and its absence hold for the method and conditions named. Binding seen in cells or lysates may run through a third protein. Here binding means that the protein was enriched with, or labelled near, the bait; the list need not be complete.

Protein sequences, listed by entry. Tags and fused reporters are not part of them. Residues count along the entry.
UniProt Q9HCP0: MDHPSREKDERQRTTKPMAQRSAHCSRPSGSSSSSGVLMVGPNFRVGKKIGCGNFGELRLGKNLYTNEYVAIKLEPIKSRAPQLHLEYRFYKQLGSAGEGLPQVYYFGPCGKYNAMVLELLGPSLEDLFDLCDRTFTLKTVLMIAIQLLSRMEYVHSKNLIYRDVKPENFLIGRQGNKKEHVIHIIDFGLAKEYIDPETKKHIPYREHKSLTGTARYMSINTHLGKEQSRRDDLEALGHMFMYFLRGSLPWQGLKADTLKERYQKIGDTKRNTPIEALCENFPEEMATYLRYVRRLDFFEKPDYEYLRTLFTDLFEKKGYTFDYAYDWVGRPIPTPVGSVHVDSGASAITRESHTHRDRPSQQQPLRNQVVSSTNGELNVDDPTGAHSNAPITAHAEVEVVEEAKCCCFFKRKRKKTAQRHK
UniProt P78368: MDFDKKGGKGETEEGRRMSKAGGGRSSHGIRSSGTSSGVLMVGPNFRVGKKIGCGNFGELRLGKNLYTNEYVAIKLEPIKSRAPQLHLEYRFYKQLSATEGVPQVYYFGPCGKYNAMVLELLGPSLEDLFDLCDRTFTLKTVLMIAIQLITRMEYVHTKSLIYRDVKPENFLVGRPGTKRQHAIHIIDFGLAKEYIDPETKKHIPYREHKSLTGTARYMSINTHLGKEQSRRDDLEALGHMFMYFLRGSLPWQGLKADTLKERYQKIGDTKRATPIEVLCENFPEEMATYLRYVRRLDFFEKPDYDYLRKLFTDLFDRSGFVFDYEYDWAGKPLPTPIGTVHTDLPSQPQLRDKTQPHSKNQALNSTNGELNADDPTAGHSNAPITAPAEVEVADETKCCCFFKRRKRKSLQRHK
UniProt Q9HCU4, residues 32-2923: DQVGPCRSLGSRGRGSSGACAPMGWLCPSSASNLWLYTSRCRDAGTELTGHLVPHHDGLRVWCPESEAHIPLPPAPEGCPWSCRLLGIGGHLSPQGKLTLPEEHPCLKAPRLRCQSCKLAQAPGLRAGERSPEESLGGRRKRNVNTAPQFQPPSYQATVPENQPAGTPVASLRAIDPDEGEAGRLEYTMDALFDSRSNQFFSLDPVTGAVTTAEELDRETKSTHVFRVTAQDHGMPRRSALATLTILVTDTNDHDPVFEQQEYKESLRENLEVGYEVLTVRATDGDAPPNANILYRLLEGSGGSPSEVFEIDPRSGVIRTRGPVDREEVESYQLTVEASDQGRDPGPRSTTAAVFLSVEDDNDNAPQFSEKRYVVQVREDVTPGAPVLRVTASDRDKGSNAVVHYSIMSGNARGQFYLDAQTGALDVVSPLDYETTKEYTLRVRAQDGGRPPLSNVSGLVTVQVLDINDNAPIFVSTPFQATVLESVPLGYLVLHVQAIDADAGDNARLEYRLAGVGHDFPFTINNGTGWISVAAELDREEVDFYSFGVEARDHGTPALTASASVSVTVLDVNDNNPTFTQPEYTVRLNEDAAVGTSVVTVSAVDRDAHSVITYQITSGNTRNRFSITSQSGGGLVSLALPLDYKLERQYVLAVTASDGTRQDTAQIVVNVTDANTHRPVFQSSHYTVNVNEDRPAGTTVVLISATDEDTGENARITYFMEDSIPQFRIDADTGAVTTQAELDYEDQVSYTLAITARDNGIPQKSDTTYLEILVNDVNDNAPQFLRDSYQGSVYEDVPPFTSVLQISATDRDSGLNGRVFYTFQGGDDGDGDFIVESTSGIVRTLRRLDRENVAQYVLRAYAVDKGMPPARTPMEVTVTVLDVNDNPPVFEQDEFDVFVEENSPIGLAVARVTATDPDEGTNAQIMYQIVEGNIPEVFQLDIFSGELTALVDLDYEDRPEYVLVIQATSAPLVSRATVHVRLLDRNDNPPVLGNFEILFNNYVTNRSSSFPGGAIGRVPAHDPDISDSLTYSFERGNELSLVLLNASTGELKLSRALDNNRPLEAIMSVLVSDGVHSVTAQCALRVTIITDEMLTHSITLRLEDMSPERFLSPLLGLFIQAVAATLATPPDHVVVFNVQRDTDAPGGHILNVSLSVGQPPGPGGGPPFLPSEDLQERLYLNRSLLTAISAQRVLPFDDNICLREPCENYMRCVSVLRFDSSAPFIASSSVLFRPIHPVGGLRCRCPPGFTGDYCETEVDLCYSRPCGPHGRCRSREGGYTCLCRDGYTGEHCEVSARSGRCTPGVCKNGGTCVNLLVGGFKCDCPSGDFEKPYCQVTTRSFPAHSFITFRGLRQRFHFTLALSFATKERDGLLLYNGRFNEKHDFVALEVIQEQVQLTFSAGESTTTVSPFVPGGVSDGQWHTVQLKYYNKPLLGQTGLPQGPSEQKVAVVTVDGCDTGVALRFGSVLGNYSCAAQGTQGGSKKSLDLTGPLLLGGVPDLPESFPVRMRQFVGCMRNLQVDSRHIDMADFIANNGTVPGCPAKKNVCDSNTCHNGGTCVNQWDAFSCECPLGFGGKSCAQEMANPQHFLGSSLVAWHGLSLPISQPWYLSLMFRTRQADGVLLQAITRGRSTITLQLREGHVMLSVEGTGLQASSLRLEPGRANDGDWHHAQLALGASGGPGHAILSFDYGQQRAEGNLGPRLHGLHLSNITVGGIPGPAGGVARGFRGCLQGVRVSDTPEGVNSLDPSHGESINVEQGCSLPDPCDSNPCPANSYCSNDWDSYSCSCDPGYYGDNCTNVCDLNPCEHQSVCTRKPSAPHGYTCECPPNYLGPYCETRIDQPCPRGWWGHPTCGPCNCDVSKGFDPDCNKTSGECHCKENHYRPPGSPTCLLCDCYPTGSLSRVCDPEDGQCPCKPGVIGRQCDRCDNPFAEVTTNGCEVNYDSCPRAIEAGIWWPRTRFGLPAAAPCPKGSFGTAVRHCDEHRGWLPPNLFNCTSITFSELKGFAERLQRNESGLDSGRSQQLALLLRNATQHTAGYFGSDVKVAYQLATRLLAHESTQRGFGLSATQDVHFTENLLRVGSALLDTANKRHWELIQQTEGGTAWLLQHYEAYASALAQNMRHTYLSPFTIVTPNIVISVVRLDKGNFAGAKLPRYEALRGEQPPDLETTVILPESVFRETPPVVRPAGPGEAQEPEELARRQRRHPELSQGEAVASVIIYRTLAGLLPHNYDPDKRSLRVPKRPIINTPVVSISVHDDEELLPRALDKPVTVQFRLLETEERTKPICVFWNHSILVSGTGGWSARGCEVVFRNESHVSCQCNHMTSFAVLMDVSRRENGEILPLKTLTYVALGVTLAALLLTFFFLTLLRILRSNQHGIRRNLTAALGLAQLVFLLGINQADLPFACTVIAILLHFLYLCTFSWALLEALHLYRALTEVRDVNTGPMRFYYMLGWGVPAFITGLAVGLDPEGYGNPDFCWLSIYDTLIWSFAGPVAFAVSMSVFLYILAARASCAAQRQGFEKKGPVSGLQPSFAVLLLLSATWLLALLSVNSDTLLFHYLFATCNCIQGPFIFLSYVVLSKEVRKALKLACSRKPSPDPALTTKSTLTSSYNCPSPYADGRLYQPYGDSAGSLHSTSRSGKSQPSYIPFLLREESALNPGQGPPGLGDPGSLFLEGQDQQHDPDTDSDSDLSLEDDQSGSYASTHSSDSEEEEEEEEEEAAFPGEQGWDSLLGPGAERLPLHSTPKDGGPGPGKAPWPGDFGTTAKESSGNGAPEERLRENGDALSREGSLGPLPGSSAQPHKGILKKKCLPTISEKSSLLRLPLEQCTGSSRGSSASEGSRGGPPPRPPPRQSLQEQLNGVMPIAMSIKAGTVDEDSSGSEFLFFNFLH
UniProt O14641: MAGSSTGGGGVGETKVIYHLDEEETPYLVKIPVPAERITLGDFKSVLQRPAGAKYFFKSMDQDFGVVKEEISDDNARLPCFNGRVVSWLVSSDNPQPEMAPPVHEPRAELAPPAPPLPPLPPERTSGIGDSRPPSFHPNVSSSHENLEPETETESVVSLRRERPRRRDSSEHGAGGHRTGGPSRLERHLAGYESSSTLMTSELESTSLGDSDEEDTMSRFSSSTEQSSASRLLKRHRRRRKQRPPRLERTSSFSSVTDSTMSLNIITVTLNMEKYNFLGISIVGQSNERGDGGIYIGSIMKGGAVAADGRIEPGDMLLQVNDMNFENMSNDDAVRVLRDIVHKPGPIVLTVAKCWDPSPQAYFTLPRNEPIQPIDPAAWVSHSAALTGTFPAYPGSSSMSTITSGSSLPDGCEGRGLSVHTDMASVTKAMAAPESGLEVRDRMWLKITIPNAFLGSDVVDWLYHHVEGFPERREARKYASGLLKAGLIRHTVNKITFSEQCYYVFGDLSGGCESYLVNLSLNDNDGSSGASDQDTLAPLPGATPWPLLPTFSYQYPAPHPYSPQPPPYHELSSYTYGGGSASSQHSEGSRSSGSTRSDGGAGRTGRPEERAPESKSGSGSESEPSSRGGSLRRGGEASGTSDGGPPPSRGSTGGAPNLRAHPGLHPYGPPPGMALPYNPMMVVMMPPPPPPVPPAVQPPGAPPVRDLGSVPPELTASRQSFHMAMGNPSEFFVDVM
UniProt Q9ULC8: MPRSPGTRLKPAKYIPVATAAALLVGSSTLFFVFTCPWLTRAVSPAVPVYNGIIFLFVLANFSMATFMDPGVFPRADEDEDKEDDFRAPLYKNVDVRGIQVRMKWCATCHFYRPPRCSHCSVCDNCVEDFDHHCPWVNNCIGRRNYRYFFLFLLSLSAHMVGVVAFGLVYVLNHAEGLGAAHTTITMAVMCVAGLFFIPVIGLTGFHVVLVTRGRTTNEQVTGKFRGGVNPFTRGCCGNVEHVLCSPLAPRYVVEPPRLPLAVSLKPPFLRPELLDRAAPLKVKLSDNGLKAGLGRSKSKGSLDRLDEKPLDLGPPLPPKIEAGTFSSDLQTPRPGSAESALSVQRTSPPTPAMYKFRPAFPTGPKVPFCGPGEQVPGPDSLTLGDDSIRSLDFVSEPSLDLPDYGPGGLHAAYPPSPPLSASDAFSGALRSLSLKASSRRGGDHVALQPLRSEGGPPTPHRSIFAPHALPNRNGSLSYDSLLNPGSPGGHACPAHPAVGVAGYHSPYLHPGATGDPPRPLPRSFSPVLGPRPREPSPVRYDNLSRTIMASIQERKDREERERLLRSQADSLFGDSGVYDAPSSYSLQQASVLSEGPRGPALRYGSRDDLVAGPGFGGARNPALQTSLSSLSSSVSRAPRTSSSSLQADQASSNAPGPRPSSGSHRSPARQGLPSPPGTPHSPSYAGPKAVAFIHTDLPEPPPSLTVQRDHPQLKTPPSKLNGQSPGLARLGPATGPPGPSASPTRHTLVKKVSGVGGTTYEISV
UniProt P35222: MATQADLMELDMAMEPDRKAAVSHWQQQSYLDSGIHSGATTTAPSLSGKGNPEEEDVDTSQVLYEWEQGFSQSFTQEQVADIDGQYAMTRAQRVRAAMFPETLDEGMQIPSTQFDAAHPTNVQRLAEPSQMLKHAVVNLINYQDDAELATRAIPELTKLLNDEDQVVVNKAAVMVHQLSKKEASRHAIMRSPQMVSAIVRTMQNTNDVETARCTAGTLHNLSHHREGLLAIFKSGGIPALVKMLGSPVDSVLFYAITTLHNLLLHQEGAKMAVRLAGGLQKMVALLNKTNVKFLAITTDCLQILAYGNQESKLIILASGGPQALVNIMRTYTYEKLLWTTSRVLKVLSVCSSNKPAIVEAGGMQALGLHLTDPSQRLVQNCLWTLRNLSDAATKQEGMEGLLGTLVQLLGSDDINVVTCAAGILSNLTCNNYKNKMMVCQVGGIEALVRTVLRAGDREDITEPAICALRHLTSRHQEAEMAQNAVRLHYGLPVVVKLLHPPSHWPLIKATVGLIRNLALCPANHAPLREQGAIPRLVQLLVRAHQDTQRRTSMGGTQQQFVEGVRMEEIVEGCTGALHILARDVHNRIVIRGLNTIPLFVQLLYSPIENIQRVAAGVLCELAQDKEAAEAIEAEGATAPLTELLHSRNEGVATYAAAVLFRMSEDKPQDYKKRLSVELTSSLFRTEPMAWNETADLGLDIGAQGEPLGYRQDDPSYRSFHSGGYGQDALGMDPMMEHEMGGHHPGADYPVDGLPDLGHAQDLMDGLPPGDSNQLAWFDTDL

How the values were obtained:
Assay in all cases: proximity labelling
[1] = target: mT-V5-CK1γ1 (miniTurbo-V5 fusion of casein kinase 1 gamma 1) (human) (UniProt Q9HCP0)
[2] = target: mT-V5-CK1γ2 (miniTurbo-V5 fusion of casein kinase 1 gamma 2) (human) (UniProt P78368)
[3] = target: mT-V5-CK1γ3 (miniTurbo-V5 fusion of casein kinase 1 gamma 3) (human) (UniProt Q9Y6M4)
[4] = target: mT-V5-CK1γ1 (miniTurbo-V5 fusion of casein kinase 1 gamma 1) (human) (UniProt Q9HCP0); remark: listed apart in the source
[5] = target: mT-V5-CK1γ2 (miniTurbo-V5 fusion of casein kinase 1 gamma 2) (human) (UniProt P78368); remark: listed apart in the source
[6] = target: mT-V5-CK1γ3 (miniTurbo-V5 fusion of casein kinase 1 gamma 3) (human) (UniProt Q9Y6M4); remark: listed apart in the source

Measured: binding

AXIN1 (from UniProt O15169 1-862)
binds: [1] | [2] | [3]

CELSR2 (from UniProt Q9HCU4 32-2923) (receptor)
binds: [4] | [5] | [6]

DVL2 (from UniProt O14641 1-736)
binds: [4] | [5] | [6]

PIK3R3 (Phosphoinositide-3-Kinase Regulatory Subunit 3) (from UniProt Q92569 1-461)
binds: [4] | [5] | [6]

ZDHHC8 (Zinc Finger DHHC-Type Palmitoyltransferase 8) (from UniProt Q9ULC8 1-765) (enzyme)
binds: [4] | [5] | [6]

β-catenin (CTNNB1) (from UniProt P35222 1-781)
binds: all assays above

B1: PRICKLE1 (protein, UniProt Q96MT3 1-831)
chain: MPLEMEPKMSKLAFGCQRSSTSDDDSGCALEEYAWVPPGLRPEQIQLYFACLPEEKVPYVNSPGEKHRIKQLLYQLPPHDNEVRYCQSLSEEEKKELQVFSAQRKKEALGRGTIKLLSRAVMHAVCEQCGLKINGGEVAVFASRAGPGVCWHPSCFVCFTCNELLVDLIYFYQDGKIHCGRHHAELLKPRCSACDEIIFADECTEAEGRHWHMKHFCCLECETVLGGQRYIMKDGRPFCCGCFESLYAEYCETCGEHIGVDHAQMTYDGQHWHATEACFSCAQCKASLLGCPFLPKQGQIYCSKTCSLGEDVHASDSSDSAFQSARSRDSRRSVRMGKSSRSADQCRQSLLLSPALNYKFPGLSGNADDTLSRKLDDLSLSRQGTSFASEEFWKGRVEQETPEDPEEWADHEDYMTQLLLKFGDKSLFQPQPNEMDIRASEHWISDNMVKSKTELKQNNQSLASKKYQSDMYWAQSQDGLGDSAYGSHPGPASSRRLQELELDHGASGYNHDETQWYEDSLECLSDLKPEQSVRDSMDSLALSNITGASVDGENKPRPSLYSLQNFEEMETEDCEKMSNMGTLNSSMLHRSAESLKSLSSELCPEKILPEEKPVHLPVLRRSKSQSRPQQVKFSDDVIDNGNYDIEIRQPPMSERTRRRVYNFEERGSRSHHHRRRRSRKSRSDNALNLVTERKYSPKDRLRLYTPDNYEKFIQNKSAREIQAYIQNADLYGQYAHATSDYGLQNPGMNRFLGLYGEDDDSWCSSSSSSSDSEEEGYFLGQPIPQPRPQRFAYYTDDLSSPPSALPTPQFGQRTTKSKKKKGHKGKNCIIS
binds: [4] | [5] | [6]
